No constants are given. Whether binding was seen depends on the method and setting. In cells and extracts the contact can be indirect. Binding can be weak; no strength is given. Sequences can lack the tags named with a protein. Values belong to the molecule of their own block, whether it stands above or below them.
Assays:
Assay in all cases: co-IP; epitope-tagged proteins co-overexpressed by transient transfection in S2r+ cells; lysis in 50 mM Tris-Cl pH 7,5, 150 mM NaCl, 1% NP40, 0.2% Na-Deoxycholate with protease inhibitors; anti-Myc or anti-GFP IP overnight at 4°C on Protein A/G Sepharose; Western blot for the other tag
[1] = target: T1, OtkDeltaCy-Myc (Myc-tagged Otk lacking the cytoplasmic domain, aa 776–1033) (Drosophila melanogaster) (UniProt Q6AWJ9)
T1 sequence: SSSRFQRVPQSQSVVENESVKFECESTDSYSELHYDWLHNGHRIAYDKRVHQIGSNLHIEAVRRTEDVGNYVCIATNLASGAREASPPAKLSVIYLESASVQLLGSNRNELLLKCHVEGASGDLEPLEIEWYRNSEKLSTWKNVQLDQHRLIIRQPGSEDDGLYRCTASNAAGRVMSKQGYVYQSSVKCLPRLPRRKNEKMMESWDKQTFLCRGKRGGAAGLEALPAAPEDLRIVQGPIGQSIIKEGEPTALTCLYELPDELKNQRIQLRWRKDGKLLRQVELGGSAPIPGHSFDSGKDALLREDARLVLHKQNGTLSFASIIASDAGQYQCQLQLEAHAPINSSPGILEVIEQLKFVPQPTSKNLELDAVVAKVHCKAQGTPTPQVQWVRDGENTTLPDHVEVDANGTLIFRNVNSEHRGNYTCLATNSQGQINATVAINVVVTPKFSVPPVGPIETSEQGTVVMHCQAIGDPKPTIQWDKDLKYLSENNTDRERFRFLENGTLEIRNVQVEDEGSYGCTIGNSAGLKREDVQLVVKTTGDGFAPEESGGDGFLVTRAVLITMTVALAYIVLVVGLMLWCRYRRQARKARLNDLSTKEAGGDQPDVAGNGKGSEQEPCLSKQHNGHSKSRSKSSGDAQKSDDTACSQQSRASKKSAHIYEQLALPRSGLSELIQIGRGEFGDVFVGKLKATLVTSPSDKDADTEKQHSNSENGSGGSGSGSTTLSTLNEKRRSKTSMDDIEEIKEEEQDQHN

[2] = target: T2, OtkDeltaEx-Myc (Myc-tagged Otk lacking the extracellular domain, aa 2–474) (Drosophila melanogaster) (UniProt Q6AWJ9)
T2 sequence: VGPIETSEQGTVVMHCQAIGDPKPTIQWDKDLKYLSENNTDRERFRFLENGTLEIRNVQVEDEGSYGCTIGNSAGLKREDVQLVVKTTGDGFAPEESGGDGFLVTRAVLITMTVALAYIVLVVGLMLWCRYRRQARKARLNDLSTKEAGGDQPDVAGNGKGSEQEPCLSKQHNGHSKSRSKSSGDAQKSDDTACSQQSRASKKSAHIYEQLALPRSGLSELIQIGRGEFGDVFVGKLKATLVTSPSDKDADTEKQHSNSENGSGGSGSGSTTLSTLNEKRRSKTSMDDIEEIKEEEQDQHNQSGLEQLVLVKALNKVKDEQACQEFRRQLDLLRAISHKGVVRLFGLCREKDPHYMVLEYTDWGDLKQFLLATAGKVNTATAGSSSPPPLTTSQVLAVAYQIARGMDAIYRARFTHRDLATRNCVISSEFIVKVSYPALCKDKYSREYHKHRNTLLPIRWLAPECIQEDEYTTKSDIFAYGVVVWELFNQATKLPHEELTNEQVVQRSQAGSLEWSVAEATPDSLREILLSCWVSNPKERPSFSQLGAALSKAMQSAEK

[3] = target: T3, Otk-Myc (Myc-tagged Off-track) (Drosophila melanogaster) (UniProt Q6AWJ9)
T3 sequence: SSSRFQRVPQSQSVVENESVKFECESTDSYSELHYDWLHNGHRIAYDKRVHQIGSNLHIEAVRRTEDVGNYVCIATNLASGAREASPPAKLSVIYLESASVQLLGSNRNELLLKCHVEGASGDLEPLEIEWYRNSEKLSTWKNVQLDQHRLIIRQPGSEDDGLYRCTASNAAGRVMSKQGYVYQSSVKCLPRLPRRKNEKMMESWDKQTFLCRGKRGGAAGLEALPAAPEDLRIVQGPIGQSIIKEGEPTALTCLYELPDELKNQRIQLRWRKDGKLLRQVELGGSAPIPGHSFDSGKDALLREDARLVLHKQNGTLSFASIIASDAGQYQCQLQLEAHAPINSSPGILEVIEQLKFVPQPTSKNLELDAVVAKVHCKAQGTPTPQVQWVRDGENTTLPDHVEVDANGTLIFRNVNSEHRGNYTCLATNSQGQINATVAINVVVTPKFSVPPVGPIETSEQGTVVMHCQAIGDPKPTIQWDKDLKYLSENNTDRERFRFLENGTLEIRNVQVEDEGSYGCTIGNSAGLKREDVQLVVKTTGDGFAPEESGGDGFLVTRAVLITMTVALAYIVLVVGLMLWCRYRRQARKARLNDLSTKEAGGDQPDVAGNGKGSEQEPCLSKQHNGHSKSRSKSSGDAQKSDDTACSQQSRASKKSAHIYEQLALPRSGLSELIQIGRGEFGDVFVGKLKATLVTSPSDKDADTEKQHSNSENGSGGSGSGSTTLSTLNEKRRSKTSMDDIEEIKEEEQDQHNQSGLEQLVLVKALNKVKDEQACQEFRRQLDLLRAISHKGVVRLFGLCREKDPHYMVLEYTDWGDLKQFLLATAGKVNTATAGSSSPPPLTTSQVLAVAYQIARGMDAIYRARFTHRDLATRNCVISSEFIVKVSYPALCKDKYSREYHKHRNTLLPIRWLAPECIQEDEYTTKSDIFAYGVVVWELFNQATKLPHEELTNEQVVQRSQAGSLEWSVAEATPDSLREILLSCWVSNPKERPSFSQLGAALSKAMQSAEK

[4] = target: Otk2-Myc (Myc-tagged Off-track2) (Drosophila melanogaster)
[5] = target: Otk2-GFP (GFP-tagged Off-track2) (Drosophila melanogaster)

binding [4]: binds
B1: Otk-GFP (GFP-tagged Off-track) (receptor, UniProt Q6AWJ9 23-1033)
chain: T3 sequence

binding [5]: binds
B3: Wnt2-Myc (Myc-tagged Drosophila Wnt2) (ligand, UniProt P28465 24-352)
chain: FTSVMLCGRIPGLTPGQRNMCREMPDALIALGEGHQLGAQECQHQFRGHRWNCSEVWQRNVFAHVIPTASREAAYTYAIASAGAAYAVTAACARGNISTCGCDVRHKATPTGGGTPDEPWKWGGCSADVDFGMRYARRFMDARELERDSRTLMNLHNNRAGRTLVKKMLRTDCKCHGVSGSCVMKTCWKSLPPFRLVGDRLMLKYQKAKTVQAVKGKRGLRLVLSRKKHAGTARAQKPVLDWPKRMELIYLEASPNYCERSLQTGSQGTSGRTCQRTGHGPQSCDLLCCGRGHNTQHIRRTTQCRCQFRWCCEVKCDECDESYEEFTCK

Second part, the molecule before the results:

Molecule: Otk2-GFP (GFP-tagged Off-track2) (Drosophila melanogaster) (receptor)
binding [1]: binds | binding [2]: binds | binding [3]: binds

B2: Fz2-Myc (Myc-tagged Frizzled2) (receptor, UniProt Q9VVX3 23-694)
chain: DGPLHSADHGMGGMGMGGHGLDASPAPGYGVPVIPKDPNLRCEEITIPMCRGIGYNMTSFPNEMNHETQDEAGLEVHQFWPLVEIKCSPDLKFFLCSMYTPICLEDYHKPLPVCRSVCERARSGCAPIMQQYSFEWPERMACEHLPLHGDPDNLCMEQPSYTEAGSGGSSGGSGGSGSGSGSGGKRKQGGSGSGGSGAGGSSGSTSTKPCRGRNSKNCQNPQGEKASGKECSCSCRSPLIFLGKEQLLQQQSQMPMMHHPHHWYMNLTVQRIAGVPNCGIPCKGPFFSNDEKDFAGLWIALWSGLCFCSTLMTLTTFIIDTERFKYPERPIVFLSACYFMVAVGYLSRNFLQNEEIACDGLLLRESSTGPHSCTLVFLLTYFFGMASSIWWVILSFTWFLAAGLKWGNEAITKHSQYFHLAAWLIPTVQSVAVLLLSAVDGDPILGICYVGNLNPDHLKTFVLAPLFVYLVIGTTFLMAGFVSLFRIRSVIKQQGGVGAGVKADKLEKLMIRIGIFSVLYTVPATIVIGCYLYEAAYFEDWIKALACPCAQVKGPGKKPLYSVLMLKYFMALAVGITSGVWIWSGKTLESWRRFWRRLLGAPDRTGANQALIKQRPPIPHPYAGSGMGMPVGSAAGSLLATPYTQAGGASVASTSHHHLHHHVLKQPAASHV
binding [5]: binds
